Experimental data as given in patent publication US12390440B2, “Immunomodulating trifluoromethyl-aminal azalides” (Zoetis Services LLC, priority 2020, dated 2025).
Some results were stated once for a whole list of compounds, not compound by compound. At least one structure is not confirmed: it was looked up by name or label, or the drawing left a doubt.

tested on: BRD pathogens, M. haemolytica and P. multocida; test: MIC screening panel, BRD pathogens (CLSI broth micro-dilution)

SMILES | in vitro activity vs. clinically relevant pathogenic strains for BRD
CC[C@H]1OC(=O)[C@H](C)[C@@H](O[C@H]2C[C@@](C)(OC)[C@](O)(CNC)[C@H](C)O2)[C@H](C)[C@@H](O[C@@H]2O[C@H](C)C[C@H]3[C@H]2OC(C(F)(F)F)N3C)[C@](C)(O)C[C@@H](C)CN[C@H](C)[C@@H](O)[C@]1(C)O (stereo partly drawn) [Example A-6, (2R,3S,4R,5R,8R,10R,11R,12S,13S,14R)-11-(((3aR,4S,6R,7aS)-1,6-dimethyl-2-(trifluoromethyl)hexahydro-2H-pyrano[4,3-d]oxazol-4-yl)oxy)-2-ethyl-3,4,10-trihydroxy-13-(((2R,4R,5S,6S)-5-hydroxy-4-methoxy-4,6-dimethyl-5-((methylamino)methyl)tetrahydro-2H-pyran-2-yl)oxy)-3,5,8,10,12,14-hexamethyl-1-oxa-6-azacyclopentadecan-15-one] | lack of in vitro activity
CC[C@H]1OC(=O)[C@H](C)[C@@H](O[C@H]2C[C@@](C)(OC)[C@](O)(CNCCN3CCCC3=O)[C@H](C)O2)[C@H](C)[C@@H](O[C@@H]2O[C@H](C)C[C@H]3[C@H]2OC(C(F)(F)F)N3C)[C@](C)(O)C[C@@H](C)CN[C@H](C)[C@@H](O)[C@]1(C)O (stereo partly drawn) [Example A-12, (2R,3S,4R,5R,8R,10R,11R,12S,13S,14R)-11-(((3aR,4S,6R,7aS)-1,6-dimethyl-2-(trifluoromethyl)hexahydro-2H-pyrano[4,3-d]oxazol-4-yl)oxy)-2-ethyl-3,4,10-trihydroxy-13-(((2R,4R,5S,6S)-5-hydroxy-4-methoxy-4,6-dimethyl-5-(((2-(2-oxopyrrolidin-1-yl)ethyl)amino)methyl)tetrahydro-2H-pyran-2-yl)oxy)-3,5,8,10,12,14-hexamethyl-1-oxa-6-azacyclopentadecan-15-one] | lack of in vitro activity
CC[C@H]1OC(=O)[C@H](C)[C@@H](O[C@H]2C[C@@](C)(OC)[C@](O)(CNC(CO)CO)[C@H](C)O2)[C@H](C)[C@@H](O[C@@H]2O[C@H](C)C[C@H]3[C@H]2OC(C(F)(F)F)N3C)[C@](C)(O)C[C@@H](C)CN[C@H](C)[C@@H](O)[C@]1(C)O (stereo partly drawn) [Example A-4, (2R,3S,4R,5R,8R,10R,11R,12S,13S,14R)-13-(((2R,4R,5S,6S)-5-(((1,3-dihydroxypropan-2-yl)amino)methyl)-5-hydroxy-4-methoxy-4,6-dimethyltetrahydro-2H-pyran-2-yl)oxy)-11-(((3aR,4S,6R,7aS)-1,6-dimethyl-2-(trifluoromethyl)hexahydro-2H-pyrano[4,3-d]oxazol-4-yl)oxy)-2-ethyl-3,4,10-trihydroxy-3,5,8,10,12,14-hexamethyl-1-oxa-6-azacyclopentadecan-15-one] | lack of in vitro activity
CC[C@H]1OC(=O)[C@H](C)[C@@H](O[C@H]2C[C@@](C)(OC)[C@](O)(CN3CCOCC3)[C@H](C)O2)[C@H](C)[C@@H](O[C@@H]2O[C@H](C)C[C@H]3[C@H]2OC(C(F)(F)F)N3C)[C@](C)(O)C[C@@H](C)CN[C@H](C)[C@@H](O)[C@]1(C)O (stereo partly drawn) [Example B-1, (2R,3S,4R,5R,8R,10R,11R,12S,13S,14R)-11-(((3aR,4S,6R,7aS)-1,6-dimethyl-2-(trifluoromethyl)hexahydro-2H-pyrano[4,3-d]oxazol-4-yl)oxy)-2-ethyl-3,4,10-trihydroxy-13-(((2R,4R,5S,6S)-5-hydroxy-4-methoxy-4,6-dimethyl-5-(morpholinomethyl)tetrahydro-2H-pyran-2-yl)oxy)-3,5,8,10,12,14-hexamethyl-1-oxa-6-azacyclopentadecan-15-one] | lack of in vitro activity
CC[C@H]1OC(=O)[C@H](C)[C@@H](O[C@H]2C[C@@](C)(OC)[C@](O)(CNCCS(N)(=O)=O)[C@H](C)O2)[C@H](C)[C@@H](O[C@@H]2O[C@H](C)C[C@H]3[C@H]2OC(C(F)(F)F)N3C)[C@](C)(O)C[C@@H](C)CN[C@H](C)[C@@H](O)[C@]1(C)O (stereo partly drawn) [Example A-20, 2-((((2S,3S,4R,6R)-6-(((2R,3S,4R,5R,8R,10R,11R,12S,13S,14R)-11-(((3aR,4S,6R,7aS)-1,6-dimethyl-2-(trifluoromethyl)hexahydro-2H-pyrano[4,3-d]oxazol-4-yl)oxy)-2-ethyl-3,4,10-trihydroxy-3,5,8,10,12,14-hexamethyl-15-oxo-1-oxa-6-azacyclopentadecan-13-yl)oxy)-3-hydroxy-4-methoxy-2,4-dimethyltetrahydro-2H-pyran-3-yl)methyl)amino)ethane-1-sulfonamide] | lack of in vitro activity
CC[C@H]1OC(=O)[C@H](C)[C@@H](O[C@H]2C[C@@](C)(OC)[C@](O)(CNCCS(C)(=O)=O)[C@H](C)O2)[C@H](C)[C@@H](O[C@@H]2O[C@H](C)C[C@H]3[C@H]2OC(C(F)(F)F)N3C)[C@](C)(O)C[C@@H](C)CN[C@H](C)[C@@H](O)[C@]1(C)O (stereo partly drawn) [Example A-9, (2R,3S,4R,5R,8R,10R,11R,12S,13S,14R)-11-(((3aR,4S,6R,7aS)-1,6-dimethyl-2-(trifluoromethyl)hexahydro-2H-pyrano[4,3-d]oxazol-4-yl)oxy)-2-ethyl-3,4,10-trihydroxy-13-(((2R,4R,5S,6S)-5-hydroxy-4-methoxy-4,6-dimethyl-5-(((2-(methylsulfonyl)ethyl)amino)methyl)tetrahydro-2H-pyran-2-yl)oxy)-3,5,8,10,12,14-hexamethyl-1-oxa-6-azacyclopentadecan-15-one] | lack of in vitro activity
CC[C@H]1OC(=O)[C@H](C)[C@@H](O[C@H]2C[C@@](C)(OC)[C@](O)(CNCCOC)[C@H](C)O2)[C@H](C)[C@@H](O[C@@H]2O[C@H](C)C[C@H]3[C@H]2OC(C(F)(F)F)N3C)[C@](C)(O)C[C@@H](C)CN[C@H](C)[C@@H](O)[C@]1(C)O (stereo partly drawn) [Example A-2, (2R,3S,4R,5R,8R,10R,11R,12S,13S,14R)-11-(((3aR,4S,6R,7aS)-1,6-dimethyl-2-(trifluoromethyl)hexahydro-2H-pyrano[4,3-d]oxazol-4-yl)oxy)-2-ethyl-3,4,10-trihydroxy-13-(((2R,4R,5S,6S)-5-hydroxy-4-methoxy-5-(((2-methoxyethyl)amino)methyl)-4,6-dimethyltetrahydro-2H-pyran-2-yl)oxy)-3,5,8,10,12,14-hexamethyl-1-oxa-6-azacyclopentadecan-15-one] | lack of in vitro activity
CC[C@H]1OC(=O)[C@H](C)[C@@H](O[C@H]2C[C@@](C)(OC)[C@](O)(CNCCOCCO)[C@H](C)O2)[C@H](C)[C@@H](O[C@@H]2O[C@H](C)C[C@H]3[C@H]2OC(C(F)(F)F)N3C)[C@](C)(O)C[C@@H](C)CN[C@H](C)[C@@H](O)[C@]1(C)O (stereo partly drawn) [Example A-16, (2R,3S,4R,5R,8R,10R,11R,12S,13S,14R)-11-(((3aR,4S,6R,7aS)-1,6-dimethyl-2-(trifluoromethyl)hexahydro-2H-pyrano[4,3-d]oxazol-4-yl)oxy)-2-ethyl-3,4,10-trihydroxy-13-(((2R,4R,5S,6S)-5-hydroxy-5-(((2-(2-hydroxyethoxy)ethyl)amino)methyl)-4-methoxy-4,6-dimethyltetrahydro-2H-pyran-2-yl)oxy)-3,5,8,10,12,14-hexamethyl-1-oxa-6-azacyclopentadecan-15-one] | lack of in vitro activity
CC[C@H]1OC(=O)[C@H](C)[C@@H](O[C@H]2C[C@@](C)(OC)[C@](O)(CNCC(C)O)[C@H](C)O2)[C@H](C)[C@@H](O[C@@H]2O[C@H](C)C[C@H]3[C@H]2OC(C(F)(F)F)N3C)[C@](C)(O)C[C@@H](C)CN[C@H](C)[C@@H](O)[C@]1(C)O (stereo partly drawn) [Example A-25, (2R,3S,4R,5R,8R,10R,11R,12S,13S,14R)-11-(((3aR,4S,6R,7aS)-1,6-dimethyl-2-(trifluoromethyl)hexahydro-2H-pyrano[4,3-d]oxazol-4-yl)oxy)-2-ethyl-3,4,10-trihydroxy-13-(((2R,4R,5S,6S)-5-hydroxy-5-(((2-hydroxypropyl)amino)methyl)-4-methoxy-4,6-dimethyltetrahydro-2H-pyran-2-yl)oxy)-3,5,8,10,12,14-hexamethyl-1-oxa-6-azacyclopentadecan-15-one] | lack of in vitro activity
CCNC[C@]1(O)[C@H](C)O[C@@H](O[C@H]2[C@H](C)[C@@H](O[C@@H]3O[C@H](C)C[C@H]4[C@H]3OC(C(F)(F)F)N4C)[C@](C)(O)C[C@@H](C)CN[C@H](C)[C@@H](O)[C@](C)(O)[C@@H](CC)OC(=O)[C@@H]2C)C[C@@]1(C)OC (stereo partly drawn) [Example A-5, (2R,3S,4R,5R,8R,10R,11R,12S,13S,14R)-11-(((3aR,4S,6R,7aS)-1,6-dimethyl-2-(trifluoromethyl)hexahydro-2H-pyrano[4,3-d]oxazol-4-yl)oxy)-2-ethyl-13-(((2R,4R,5S,6S)-5-((ethylamino)methyl)-5-hydroxy-4-methoxy-4,6-dimethyltetrahydro-2H-pyran-2-yl)oxy)-3,4,10-trihydroxy-3,5,8,10,12,14-hexamethyl-1-oxa-6-azacyclopentadecan-15-one] | lack of in vitro activity
CC[C@H]1OC(=O)[C@H](C)[C@@H](O[C@H]2C[C@@](C)(OC)[C@](O)(CNCc3ncn[nH]3)[C@H](C)O2)[C@H](C)[C@@H](O[C@@H]2O[C@H](C)C[C@H]3[C@H]2OC(C(F)(F)F)N3C)[C@](C)(O)C[C@@H](C)CN[C@H](C)[C@@H](O)[C@]1(C)O (mixture of isomers) [Example A-10, (2R,3S,4R,5R,8R,10R,11R,12S,13S,14R)-13-(((2R,4R,5S,6S)-5-((((1H-1,2,4-triazol-5-yl)methyl)amino)methyl)-5-hydroxy-4-methoxy-4,6-dimethyltetrahydro-2H-pyran-2-yl)oxy)-11-(((3aR,4S,6R,7aS)-1,6-dimethyl-2-(trifluoromethyl)hexahydro-2H-pyrano[4,3-d]oxazol-4-yl)oxy)-2-ethyl-3,4,10-trihydroxy-3,5,8,10,12,14-hexamethyl-1-oxa-6-azacyclopentadecan-15-one] | lack of in vitro activity
